Data published in the supplement of paper PMC8166895.
Where a name gives a salt, the structure may show the parent alone. This is one part of the list. Most entries show no effect beyond the scatter of the controls.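 A single-replicate pilot screen of approved drugs and clinical or known-target compounds measured melting temperature via differential scanning fluorimetry. Top stabilizing hits raised the melting point by 2 °C or more; negative shifts indicate destabilization.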

What follows are compounds tested on SARS-CoV-2 main protease (Mpro, nsp5) (assay: thermal shift ΔTm of Mpro relative to plate average Tm; higher = stronger thermal stabilization of Mpro (binding)). Details: 10 µM; protein concentration 1 µM.

Compound	thermal shift ΔTm of Mpro [°C]
C[C@H](Cc1cc2c(c(C(N)=O)c1)N(CCCO)CC2)NCCOc1ccccc1OCC(F)(F)F [Silodosin]	0.0286
O=C(c1ccc(/C=C/c2n[nH]c3ccccc23)cc1)N1CCNCC1	-0.196
C/C(=C\C(=O)Nc1ccccc1C(=O)O)c1ccc2ccccc2c1	0.244
Cc1cc(Cl)ccc1OCCCC(=O)NO [Droxinostat]	0.199
O=C(NCCN1CCOCC1)c1ccc(Cl)cc1	-0.0952
Cc1ccc(-n2sc(=O)n(Cc3ccc(F)cc3)c2=O)cc1	-0.979
COc1c(C)c2c(c(O)c1C/C=C(\C)CCC(=O)O)C(=O)OC2 [Mycophenolic acid]	0.0728
O=C(Oc1ccccc1C(=O)O)c1ccccc1O [Sasapyrine]	0.148
CC(C)(O)c1ccc2c(c1)ncn2-c1cccc(-c2ccccc2C#N)c1	-0.125
O=C(O)c1ccc(S(=O)(=O)N(Cl)Cl)cc1 [Halazone]	0.0185
CCCCCNC(=N)N/N=C/c1c[nH]c2ccc(OC)cc12 [Tegaserod maleate]	0.202
CS(=O)(=O)c1ccc(-c2cnc(N)c(C(=O)Nc3ccccc3)n2)cc1	-0.242
NS(=O)(=O)c1cc(Cl)c(Cl)c(S(N)(=O)=O)c1 [Dichlorphenamide]	-0.176
O=C(O)C1=CO[C@@H](O[C@@H]2O[C@H](CO)[C@@H](O)[C@H](O)[C@H]2O)[C@@H]2C(CO)=CC[C@H]12 [Geniposidic acid]	-0.0622
CC(C)C[C@H](NC(=O)CN)C(=O)O	-0.00719
Cc1ccc(Nc2ncc3c(n2)N(C)C(=O)N(c2cc(NC(=O)c4cccc(C(F)(F)F)c4)ccc2C)C3)cn1	0.147
NCCc1ccc(S(=O)(=O)F)cc1	-0.164
Nc1ccc(S(=O)(=O)Nc2cnc3ccccc3n2)cc1 [Sulfaquinoxaline sodium]	0.196
CNC[C@H](O)[C@@H](O)[C@H](O)[C@H](O)CO [Meglumine]	0.2
COC(=O)N[C@H](C(=O)N[C@@H](Cc1ccccc1)[C@@H](O)CN(Cc1ccc(-c2ccccn2)cc1)NC(=O)[C@@H](NC(=O)OC)C(C)(C)C)C(C)(C)C [Atazanavir]	-0.0303
COC(=O)N[C@H](C(=O)N[C@@H](Cc1ccccc1)[C@@H](O)CN(Cc1ccc(-c2ccccn2)cc1)NC(=O)[C@@H](NC(=O)OC)C(C)(C)C)C(C)(C)C [Atazanavir Sulfate]	0.228
N.N.O=C([O-])C[O-].[Pt+2] [Nedaplatin]	-0.00399
N[C@@H](Cc1ccc(N(CCCl)CCCl)cc1)C(=O)O [Melphalan]	-0.129
COC(=O)Nc1ccc(-c2nc(N3CCOCC3)c3cnn(C4CCN(C(=O)OC)CC4)c3n2)cc1	0.209
[O-][n+]1cccc(CO)c1 [Mepiroxol]	0.0877
COc1ccc(C[C@H](N)C(=O)N[C@H]2[C@@H](O)[C@H](n3cnc4c(N(C)C)ncnc43)O[C@@H]2CO)cc1 [Puromycin 2HCl]	-0.124
OC(CC1c2ccccc2-c2cncn21)C1CCCCC1 (centres undefined)	-0.0127

In a second layout: entries from further up.
Compound | thermal shift ΔTm of Mpro [°C]
C/C(=C\C(=O)Nc1ccccc1C(=O)O)c1ccc2ccccc2c1 | 0.244
Cc1cc(Cl)ccc1OCCCC(=O)NO [Droxinostat] | 0.199

Following part.

Compound	thermal shift ΔTm of Mpro [°C]
Cc1ccnc(NS(=O)(=O)c2ccc(N)cc2)n1 [Sulfamerazine]	0.151
CCC[S+]([O-])c1ccc2[nH]c(NC(=O)OC)nc2c1 (centres undefined) [Albendazole Oxide]	-0.112
NC(=O)OCC(COC(N)=O)c1ccccc1 [Felbamate]	0.297
O=c1ccn([C@@H]2O[C@H](CO)[C@@H](O)[C@H]2O)c(=O)[nH]1 [Uridine]	-0.072
COc1cc(/C=C2/SC(=S)NC2=O)ccc1OCC(=O)O	-0.0553
C[C@H](Cn1cnc2c(N)ncnc21)OCP(=O)(O)O [Tenofovir]	0.223
CCCCNc1cc(C(=O)O)cc(S(N)(=O)=O)c1Oc1ccccc1 [Bumetanide]	0.186
OC(CCN1CCCCC1)(c1ccccc1)C1CCCCC1 (racemic) [DL-trihexyphenidyl hydrochloride]	0.166
COc1nnc2ccc(N3CCC(c4ccc(OCCN5CCN(C)C(=O)[C@H]5C)cc4)CC3)nn12.O=C(O)c1ccc2cc(O)ccc2c1 [AZD5153 6-Hydroxy-2-naphthoic acid]	-0.00828
CCOC(=O)[C@H](C)C[C@@H](Cc1ccc(-c2ccccc2)cc1)NC(=O)CCC(=O)O	0.176
CCOC(=O)[C@H](C)C[C@@H](Cc1ccc(-c2ccccc2)cc1)NC(=O)CCC(=O)O [AHU377 calcium salt]	0.0728
N#CC(c1ccnc(OCc2ccc(CN3CCOCC3)cc2)n1)c1nc2ccccc2s1 (centres undefined)	0.0297
CCN(CC)CCOC(=O)c1ccc(N)cc1 [Procaine]	0.12
CCN(CC)CCOC(=O)c1ccc(N)cc1 [Procaine HCl]	-0.0857
c1cc(-c2nc3ccc(OCCCN4CCCC4)cc3o2)ccc1OCCCN1CCCC1	0.031
Oc1nc(O)c2cn[nH]c2n1 [Oxypurinol]	-0.108
Cn1ccnc1 [Saccharin 1-methylimidazole (SMI)]	0.0581
CC[C@H](C)C(=O)O[C@H]1C[C@@H](C)C=C2C=C[C@H](C)[C@H](CC[C@@H]3C[C@@H](O)CC(=O)O3)[C@H]21 [Lovastatin]	-0.146
Clc1ccc(C(Cn2ccnc2)OCc2ccc(Sc3ccccc3)cc2)c(Cl)c1 (centres undefined) [Fenticonazole Nitrate]	-0.595
Cc1c(C)c2c(c(C)c1O)CCC(C)(C(=O)O)O2 (centres undefined) [Trolox]	0.0328
COc1ccc(S(=O)(=O)Nc2ccccc2C=Cc2ccncc2)cc1	0.0121
CCn1nc(C2CCN(C(=O)CCO)CC2)nc1-c1cnc(N)c(-c2nnc(C(C)(C)C)o2)n1	0.105
COc1cccc2cc(-c3nc([C@H]4CC[C@H](C(=O)O)CC4)n4ncnc(N)c34)[nH]c12	0.117
CS(=O)(=O)c1ccc(-c2cnc(NCc3ccco3)n3cnnc23)cc1	0.00293
O=C1CCC[C@@H]2[C@H]3CCC[N+]4([O-])CCC[C@@H](CN12)[C@@H]34 (some centres undefined) [Oxymatrine]	-0.0788
C[C@@H](c1nc(-c2ccc(C#N)cc2)cs1)[C@](O)(Cn1cncn1)c1cc(F)ccc1F [Isavuconazole]	-0.0483
N[C@@H](Cc1cc(I)c(Oc2ccc(O)cc2)c(I)c1)C(=O)O [3,5-Diiodo-L-thyronine]	-0.188
